PubChem BioAssay AID1671195, Yale University – 2021

Test: 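Genes whose knockdown alters LDL uptake in liver cancer cells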 (primary screen)
System: human Huh7 hepatoma cells
Reagent: siRNA pool against human genes, 18 nM
Timing: about 2 to 2.5 days of knockdown, then 8 h LDL uptake
Conditions: DiI-labelled LDL at 30 µg/ml for 8 h, in lipoprotein-deficient serum medium
Measured: 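Fluorescent LDL signal imaged in cells, scaled to the plate median, robust z-score for each replicate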
Scale: robust z-score: higher = more LDL uptake after knockdown
Hit rule: 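a gene counts as active if at least two replicate z-scores exceed ±2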
Shown is one part, drawn at random, of about 22,000 reagents tested. Of all reagents, about 1,510 (6.9%) got an active call. 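Active includes knockdowns raising or lowering LDL uptake; positive z-scores mean more uptake, negative mean less.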 Entries without a mark were called inactive. Reagents against one gene are numbered here.

WASF1 → robust z-score, replicate 1 = -0.592; robust z-score, replicate 2 = 1.15; robust z-score, replicate 3 = -0.0881
TMEM217 → robust z-score, replicate 1 = 0.619; robust z-score, replicate 2 = 0.538; robust z-score, replicate 3 = 0.711
PVALB → robust z-score, replicate 1 = 0.192; robust z-score, replicate 2 = 0.798; robust z-score, replicate 3 = 0.272
TTLL11 #1 → robust z-score, replicate 1 = 0.433; robust z-score, replicate 2 = 0.519; robust z-score, replicate 3 = 1.43
TTLL11 #2 → robust z-score, replicate 1 = -1.07; robust z-score, replicate 2 = 0.147; robust z-score, replicate 3 = 1.26
LOC388549 (retired record) → robust z-score, replicate 1 = -0.193; robust z-score, replicate 2 = -0.269; robust z-score, replicate 3 = -0.3
EIF4G3 → robust z-score, replicate 1 = -0.881; robust z-score, replicate 2 = -1.41; robust z-score, replicate 3 = -2.31
ZHX2 → robust z-score, replicate 1 = -1.95; robust z-score, replicate 2 = -1.75; robust z-score, replicate 3 = -1.22
PLA2G5 → robust z-score, replicate 1 = 1.17; robust z-score, replicate 2 = 1.94; robust z-score, replicate 3 = 1.22
LGALS14 → robust z-score, replicate 1 = 1.31; robust z-score, replicate 2 = 1.27; robust z-score, replicate 3 = 1.29
ALOX12 → robust z-score, replicate 1 = -0.00947; robust z-score, replicate 2 = -0.105; robust z-score, replicate 3 = 0.128
RPS27 → robust z-score, replicate 1 = 0.357; robust z-score, replicate 2 = -0.259; robust z-score, replicate 3 = 0.836
MS4A10 → robust z-score, replicate 1 = -1.17; robust z-score, replicate 2 = -0.567; robust z-score, replicate 3 = -1.01
DENND1A → robust z-score, replicate 1 = 0.22; robust z-score, replicate 2 = -0.215; robust z-score, replicate 3 = -1.2
ASAH2 → robust z-score, replicate 1 = -0.87; robust z-score, replicate 2 = -0.773; robust z-score, replicate 3 = -0.963
LRRC8C → robust z-score, replicate 1 = 0.66; robust z-score, replicate 2 = 1.93; robust z-score, replicate 3 = 1.56

In a second layout: 4 of the entries above.
{"target":"TMEM217","reagent no.":1,"robust z-score, replicate 1":0.619,"robust z-score, replicate 2":0.538,"robust z-score, replicate 3":0.711}
{"target":"PVALB","reagent no.":1,"robust z-score, replicate 1":0.192,"robust z-score, replicate 2":0.798,"robust z-score, replicate 3":0.272}
{"target":"TTLL11","reagent no.":1,"robust z-score, replicate 1":0.433,"robust z-score, replicate 2":0.519,"robust z-score, replicate 3":1.43}
{"target":"TTLL11","reagent no.":2,"robust z-score, replicate 1":-1.07,"robust z-score, replicate 2":0.147,"robust z-score, replicate 3":1.26}

Continued.
TUBB2A → robust z-score, replicate 1 = 1.06; robust z-score, replicate 2 = 1.43; robust z-score, replicate 3 = 0.861
INTS14 → robust z-score, replicate 1 = -0.0812; robust z-score, replicate 2 = 0.903; robust z-score, replicate 3 = 1.52
LOC339583 (retired record) → robust z-score, replicate 1 = 2.74 (active); robust z-score, replicate 2 = 2.78; robust z-score, replicate 3 = 3.12
RPH3AL → robust z-score, replicate 1 = -0.228; robust z-score, replicate 2 = -0.59; robust z-score, replicate 3 = -0.521
LOC442373 (retired record) → robust z-score, replicate 1 = -0.539; robust z-score, replicate 2 = -0.0943; robust z-score, replicate 3 = 0.383
PCBD2 → robust z-score, replicate 1 = 1.27; robust z-score, replicate 2 = 1.09; robust z-score, replicate 3 = 1.09
LOC391345 (retired record) → robust z-score, replicate 1 = 0.65; robust z-score, replicate 2 = 0.46; robust z-score, replicate 3 = 0.077
LINC00635 → robust z-score, replicate 1 = -0.972; robust z-score, replicate 2 = -0.908; robust z-score, replicate 3 = -1.23
